Here are results for 24 compounds from PubChem BioAssay AID328 (DTP/NCI, 2004).

Each structure is given as a SMILES string. The list shows only some results of the screen, not a fair sample: it gathers tests that were run many times, whatever their T/C, doses with no T/C, and many T/C values between a quarter and a half above the control. Other doses and runs of a compound stand elsewhere. T/C: endpoint of the treated group in % of that of the vehicle group. Some doses have a count of surviving animals in place of a T/C: the source files T/C as zero there, which appears to mark a toxic dose or a test without result, not a measured value. Some doses without a T/C left all or most animals alive at the check, yet need not have been tolerated: survival well below the control is almost never listed, so the zero probably covers shortened survival too. Counts of survivors are from the toxicity check (mostly the fifth day) where no day follows; animals may have died later. Schedule codes are those of the source, taken here to give the interval after Q, in days (D) or hours (H), and the number of doses after X. Where survival is the endpoint, this PubChem deposit counts one and a half times the control or more as active, and values a quarter to a half above the control carry no call in these data; other NCI protocols may use other cut-offs. Some entries were tested several times; their values stand side by side, smallest first.

The subject of this assay is BDF1 mice, P388 leukemia ip, median survival T/C. The assay is described as follows: NCI In Vivo Anticancer Drug Screen. Data for tumor model P388 Leukemia (intraperitoneal) in B6D2F1 (BDF1) mice. The note with it: T/C endpoint: median survival time, higher T/C = longer survival. The gist of the method: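 Steps: implant the tumour, treat one group with compound and another with vehicle, record survival, then divide treated by control.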

[1] abbreviates: dose: 100.0 mg/kg/injection, schedule: Q01DX009 (ip), vehicle: saline with Tween-80.
[2] abbreviates: dose: 100.0 mg/kg/injection, schedule: Q04DX003 (ip), vehicle: saline with Tween-80.
Setting [3] is: dose: 200.0 mg/kg/injection, schedule: Q01DX009 (ip), vehicle: saline with Tween-80.
The mark [4] stands for this setting: dose: 400.0 mg/kg/injection, schedule: Q01DX009 (ip), vehicle: saline with Tween-80.
Setting [5] is: dose: 400.0 mg/kg/injection, schedule: Q04DX003 (ip), vehicle: saline with Tween-80.
Where [6] appears, read: dose: 6.25 mg/kg/injection, schedule: Q01DX009 (ip), vehicle: saline.
The mark [7] stands for this setting: dose: 25.0 mg/kg/injection, schedule: Q01DX009 (ip), vehicle: saline.
Setting [8] is: dose: 200.0 mg/kg/injection, schedule: Q01DX001 (ip), vehicle: saline with Tween-80.

In the case of `CCOCc1nc2nc(Cl)c(Cl)nc2[nH]1`, the survivor count under setting [1] was 4 of 6; the survivor count under setting [2] is reported as 6 of 6; the survivor count under setting [3] is listed as 3 of 6; the survivor count under setting [4] was 1 of 6; the survivor count under setting [5] is recorded as 3 of 6.

`COC(=O)C(CSCSC)NC(=O)/C=C\c1ccccc1` (centres undefined): under setting [5], the survivor count is given as 6 of 6.

As for `C[C@@H]1C[C@@]2(C)[C@@H](CC[C@@H]3[C@@H]2CC[C@]2(C)[C@@H](O)CC[C@@H]32)CC1=O`, the survivor count was 6 of 6 (dose: 50.0 mg/kg/injection, schedule: Q01DX009 (ip), vehicle: Klucel (hydroxypropylcellulose) (HPC)); 6 of 6 (dose: 100.0 mg/kg/injection, schedule: Q01DX009 (ip), vehicle: Klucel (hydroxypropylcellulose) (HPC)); 6 of 6 (dose: 200.0 mg/kg/injection, schedule: Q01DX009 (ip), vehicle: Klucel (hydroxypropylcellulose) (HPC)).

For the compound `O=[N+]([O-])c1ccccc1N=P(c1ccccc1)(c1ccccc1)c1ccccc1`, the survivor count (dose: 200.0 mg/kg/injection, schedule: Q01DX009 (ip), vehicle: DMSO) is reported as 3 of 6.

Take `CC[N+](CC)(CC)CCCCCCCCCC[N+](CC)(CC)CC`: the survivor count by setting is: (dose: 0.5 mg/kg/injection, schedule: Q01DX009 (ip), vehicle: water) 6 of 6; (dose: 2.0 mg/kg/injection, schedule: Q01DX009 (ip), vehicle: water) 0 of 6; (dose: 4.0 mg/kg/injection, schedule: Q01DX009 (ip), vehicle: water) 0 of 6.

With `CCOC(=O)c1cnn(-c2ccccc2)c1N`, the survivor count is given as 0 of 6 under setting [6]; 6 of 6 (dose: 12.5 mg/kg/injection, schedule: Q01DX009 (ip), vehicle: saline); 5 of 6 under setting [7]; 1 of 6 (dose: 400.0 mg/kg/injection, schedule: Q01DX009 (ip), vehicle: saline).

Regarding `C[Si](C)(C)Nc1ncnc2c1ncn2[Si](C)(C)C`, the survivor count by setting is: under setting [3], 6 of 6; under setting [4], 3 of 6.

As to `Clc1nc(Cl)nc(-c2cccn2-c2ccccc2)n1`, the survivor count (dose: 335.0 mg/kg/injection, schedule: Q01DX009 (ip), vehicle: Klucel (hydroxypropylcellulose) (HPC)) was 0 of 6.

In the case of `O=[N+]([O-])c1cc([N+](=O)[O-])c2ccccc2c1NS(=O)(=O)c1ccc(Br)cc1`, the T/C under setting [1] is 132 % of control.

`CCCCCCCCCCCCCCCCCCCCCCCCC(O)C(=O)NC(CO)C(O)C(O)CCCCCCCCCCCCCC` (centres undefined): the survivor count was 6 of 6 under setting [2] and 6 of 6 (dose: 200.0 mg/kg/injection, schedule: Q04DX003 (ip), vehicle: saline with Tween-80).

In the case of `CS(=O)(=O)Nc1ccc(Nc2c3ccccc3nc3ccccc23)cc1`, the T/C by setting is: (dose: 25.0 mg/kg/injection, schedule: Q04DX003 (ip), vehicle: Klucel (hydroxypropylcellulose) (HPC)) 136 % of control; (dose: 75.0 mg/kg/injection, schedule: Q04DX003 (ip), vehicle: Klucel (hydroxypropylcellulose) (HPC)) 140 % of control. Moreover, the survivor count (dose: 75.0 mg/kg/injection, schedule: Q01DX009 (ip), vehicle: Klucel (hydroxypropylcellulose) (HPC)) is recorded as 6 of 6 and the survivor count (dose: 600.0 mg/kg/injection, schedule: Q04DX003 (ip), vehicle: saline) was 6 of 6.

As for `C/C1=C/C2=CC(C)C[C@@H]2C(=O)[C@]2(C)C(=O)CC(C)(C)[C@H]2CC1=O` (some centres undefined), the T/C is 141 % of control (dose: 0.5 mg/kg/injection, schedule: Q01DX009 (ip), vehicle: alcohol); 128 and 130 % of control (dose: 1.0 mg/kg/injection, schedule: Q01DX009 (ip), vehicle: alcohol).

Take `CCOc1cc(/C=N\Nc2nnc(C)n2N)c(C)cc1N(CCCl)CCCl`: the T/C runs as follows: (dose: 10.0 mg/kg/injection, schedule: Q04DX003 (ip), vehicle: saline) 145 % of control; (dose: 20.0 mg/kg/injection, schedule: Q04DX003 (ip), vehicle: saline) 145 % of control. Moreover, for the setting “dose: 200.0 mg/kg/injection, schedule: Q04DX003 (ip), vehicle: saline sonified”, the survivor count is 5 of 6.

For the compound `CC(/C=N/NC(N)=S)Cc1ccc(C(C)C)cc1` (centres undefined), the survivor count (dose: 28.0 mg/kg/injection, schedule: Q01DX009 (ip), vehicle: saline with Tween-80) is reported as 6 of 6; the survivor count (dose: 60.0 mg/kg/injection, schedule: Q01DX001 (ip), vehicle: saline with Tween-80) is on record as 0 of 6; the survivor count (dose: 90.0 mg/kg/injection, schedule: Q01DX001 (ip), vehicle: saline with Tween-80) is reported as 0 of 6; the survivor count (dose: 135.0 mg/kg/injection, schedule: Q01DX001 (ip), vehicle: saline with Tween-80) is reported as 0 of 6.

Take `N#Cc1cnc2n(c1=N)CCCCC2`: the survivor count reads like this: (dose: 200.0 mg/kg/injection, schedule: Q04DX003 (ip), vehicle: Klucel (hydroxypropylcellulose) (HPC)) 5 of 6; (dose: 400.0 mg/kg/injection, schedule: Q04DX003 (ip), vehicle: Klucel (hydroxypropylcellulose) (HPC)) 0 of 6.

In the case of `CCOc1cc(C=Nc2cccc(C(F)(F)F)c2)ccc1O`, the survivor count (dose: 200.0 mg/kg/injection, schedule: Q04DX003 (ip), vehicle: other) is on record as 6 of 6.

On to `CC(C)(C)[Si](OC(=O)N(CCCl)CCCl)(c1ccccc1)c1ccccc1`, for which, under setting [8], the T/C was 148 % of control and the survivor count was 5 of 6. For the same compound, the survivor count (dose: 400.0 mg/kg/injection, schedule: Q01DX001 (ip), vehicle: saline with Tween-80) is 2 of 6.

Regarding `C[N+](C)(Cc1ccccc1)/N=C(\[O-])Cc1ccccc1`, the survivor count (dose: 200.0 mg/kg/injection, schedule: Q01DX001 (ip), vehicle: saline) is 0 of 6.

With `C=CCNCCN1CCN(CCCN2c3ccccc3Sc3ccc(C(F)(F)F)cc32)CC1`, the T/C (dose: 50.0 mg/kg/injection, schedule: Q04DX003 (ip), vehicle: saline) was 144 % of control.

In the case of `CN=S(=O)(OC/C=C/COS(=O)(=NC)c1ccc(C)cc1)c1ccc(C)cc1` (centres undefined), where the note is “dose: 50.0 mg/kg/injection, schedule: Q01DX009 (ip), vehicle: saline with Tween-80”, the T/C was 128 % of control. Besides, the survivor count is listed as 4 of 6 (dose: 100.0 mg/kg/injection, schedule: Q01DX009 (ip), vehicle: saline + alcohol) and 0 of 6 (dose: 200.0 mg/kg/injection, schedule: Q01DX009 (ip), vehicle: saline + alcohol).

In the case of `O=C(CCNOCc1ccccc1)OCc1ccccc1`, where the note is “dose: 100.0 mg/kg/injection, schedule: Q01DX009 (ip), vehicle: other”, the T/C was 126 % of control.

With `N/C(=N/O)c1[nH]cnc1N`, the survivor count (dose: 6.25 mg/kg/injection, schedule: Q01DX009 (ip), vehicle: water) is 6 of 6 and the survivor count (dose: 200.0 mg/kg/injection, schedule: Q01DX009 (ip), vehicle: water) is 2 of 6.

As for `Nc1nc(N)c2cc(N3CCCC3c3ccc(Cl)cc3)ccc2n1` (centres undefined), the T/C under setting [6] is 125 % of control. The survivor count runs as follows: under setting [7], 2 of 6; (dose: 50.0 mg/kg/injection, schedule: Q01DX009 (ip), vehicle: saline) 0 of 6; (dose: 100.0 mg/kg/injection, schedule: Q01DX009 (ip), vehicle: saline) 0 of 6; (dose: 100.0 mg/kg/injection, schedule: Q04DX003 (ip), vehicle: water) 5 of 6; (dose: 200.0 mg/kg/injection, schedule: Q04DX003 (ip), vehicle: water) 0 of 6; (dose: 400.0 mg/kg/injection, schedule: Q04DX003 (ip), vehicle: water) 0 of 6.

As for `NSc1ccc([N+](=O)[O-])cc1`, the survivor count is 2 of 6 (dose: 200.0 mg/kg/injection, schedule: Q01DX001 (ip), vehicle: other) and 1 of 6 (dose: 400.0 mg/kg/injection, schedule: Q01DX001 (ip), vehicle: other).
